The supplement of paper PMC10849652
The other results are listed elsewhere or left out.

Amino acid sequences for entries named in this document (tags omitted). A change or cut given only in a name is not applied to a line headed by its entry.
UniProt O43264: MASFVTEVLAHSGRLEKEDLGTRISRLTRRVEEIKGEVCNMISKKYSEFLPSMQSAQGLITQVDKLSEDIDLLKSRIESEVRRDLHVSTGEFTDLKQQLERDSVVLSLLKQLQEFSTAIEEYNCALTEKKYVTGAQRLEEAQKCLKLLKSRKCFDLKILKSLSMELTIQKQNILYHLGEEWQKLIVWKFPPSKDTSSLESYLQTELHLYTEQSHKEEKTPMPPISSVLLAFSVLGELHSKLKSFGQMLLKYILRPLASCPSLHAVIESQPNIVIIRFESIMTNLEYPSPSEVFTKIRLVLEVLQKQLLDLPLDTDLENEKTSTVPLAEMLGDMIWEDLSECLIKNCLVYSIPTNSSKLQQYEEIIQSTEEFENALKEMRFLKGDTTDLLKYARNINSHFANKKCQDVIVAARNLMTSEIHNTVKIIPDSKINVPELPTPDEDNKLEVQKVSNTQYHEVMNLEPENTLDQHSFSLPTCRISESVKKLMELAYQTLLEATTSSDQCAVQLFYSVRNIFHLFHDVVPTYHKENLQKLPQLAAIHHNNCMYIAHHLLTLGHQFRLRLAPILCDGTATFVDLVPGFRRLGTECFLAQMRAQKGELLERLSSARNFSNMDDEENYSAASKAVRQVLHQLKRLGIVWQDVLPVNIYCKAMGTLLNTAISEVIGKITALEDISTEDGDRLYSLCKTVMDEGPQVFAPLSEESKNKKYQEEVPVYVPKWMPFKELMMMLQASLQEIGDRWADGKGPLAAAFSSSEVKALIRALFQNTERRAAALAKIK
UniProt Q96IR2: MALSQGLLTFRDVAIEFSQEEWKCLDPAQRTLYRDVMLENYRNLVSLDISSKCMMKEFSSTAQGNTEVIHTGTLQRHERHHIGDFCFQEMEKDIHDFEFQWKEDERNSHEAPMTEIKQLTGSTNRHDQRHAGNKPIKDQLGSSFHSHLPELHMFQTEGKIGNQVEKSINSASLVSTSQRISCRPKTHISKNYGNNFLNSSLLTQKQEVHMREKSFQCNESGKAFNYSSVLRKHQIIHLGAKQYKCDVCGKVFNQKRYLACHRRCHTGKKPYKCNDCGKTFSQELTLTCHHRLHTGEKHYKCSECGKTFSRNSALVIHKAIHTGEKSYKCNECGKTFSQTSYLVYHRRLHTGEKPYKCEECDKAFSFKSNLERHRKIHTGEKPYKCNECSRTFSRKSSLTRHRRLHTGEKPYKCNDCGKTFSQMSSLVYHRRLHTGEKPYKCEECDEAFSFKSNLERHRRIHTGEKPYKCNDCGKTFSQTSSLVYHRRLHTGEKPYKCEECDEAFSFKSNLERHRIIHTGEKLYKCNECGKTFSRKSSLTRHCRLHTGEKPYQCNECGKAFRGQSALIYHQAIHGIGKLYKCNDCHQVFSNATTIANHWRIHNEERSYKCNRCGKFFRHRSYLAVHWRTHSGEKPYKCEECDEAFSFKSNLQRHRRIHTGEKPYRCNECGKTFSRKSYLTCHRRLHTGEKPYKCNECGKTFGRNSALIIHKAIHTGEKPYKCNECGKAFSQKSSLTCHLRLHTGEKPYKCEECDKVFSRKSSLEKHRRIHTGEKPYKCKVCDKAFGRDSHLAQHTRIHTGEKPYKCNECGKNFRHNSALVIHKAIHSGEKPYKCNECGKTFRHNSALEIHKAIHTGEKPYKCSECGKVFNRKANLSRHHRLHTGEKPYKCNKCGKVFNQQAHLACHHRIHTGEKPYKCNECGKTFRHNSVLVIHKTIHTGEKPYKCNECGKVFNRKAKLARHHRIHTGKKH
UniProt P52747: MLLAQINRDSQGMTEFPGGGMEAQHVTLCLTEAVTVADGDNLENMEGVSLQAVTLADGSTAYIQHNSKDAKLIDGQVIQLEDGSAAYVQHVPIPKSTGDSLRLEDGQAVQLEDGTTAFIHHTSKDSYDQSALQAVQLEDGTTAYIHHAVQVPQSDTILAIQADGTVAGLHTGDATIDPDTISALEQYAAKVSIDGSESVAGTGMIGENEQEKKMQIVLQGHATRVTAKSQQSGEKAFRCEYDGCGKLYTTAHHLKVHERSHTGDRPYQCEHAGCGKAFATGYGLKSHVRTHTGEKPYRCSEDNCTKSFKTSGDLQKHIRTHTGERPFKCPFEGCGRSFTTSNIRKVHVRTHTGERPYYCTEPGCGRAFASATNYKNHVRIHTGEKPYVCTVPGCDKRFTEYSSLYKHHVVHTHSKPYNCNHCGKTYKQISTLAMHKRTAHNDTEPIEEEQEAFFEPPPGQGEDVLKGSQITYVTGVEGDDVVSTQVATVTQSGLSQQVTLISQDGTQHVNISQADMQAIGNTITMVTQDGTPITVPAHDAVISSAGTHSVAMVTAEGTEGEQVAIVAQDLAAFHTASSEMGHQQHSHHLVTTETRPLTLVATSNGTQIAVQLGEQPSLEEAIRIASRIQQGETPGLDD
UniProt Q86YH2: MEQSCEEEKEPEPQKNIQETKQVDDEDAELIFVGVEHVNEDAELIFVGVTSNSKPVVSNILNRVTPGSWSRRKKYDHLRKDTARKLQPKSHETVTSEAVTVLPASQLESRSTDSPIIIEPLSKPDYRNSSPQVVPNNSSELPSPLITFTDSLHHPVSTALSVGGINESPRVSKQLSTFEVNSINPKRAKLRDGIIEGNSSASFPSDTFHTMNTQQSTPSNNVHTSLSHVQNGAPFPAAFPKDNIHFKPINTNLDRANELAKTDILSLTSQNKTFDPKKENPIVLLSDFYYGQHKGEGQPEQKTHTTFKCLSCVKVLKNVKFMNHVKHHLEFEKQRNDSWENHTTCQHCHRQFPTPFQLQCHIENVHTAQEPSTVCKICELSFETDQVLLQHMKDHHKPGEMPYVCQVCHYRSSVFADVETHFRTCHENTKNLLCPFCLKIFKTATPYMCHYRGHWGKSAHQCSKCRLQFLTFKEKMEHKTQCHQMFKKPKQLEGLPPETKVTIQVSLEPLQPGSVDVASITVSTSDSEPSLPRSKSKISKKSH
UniProt Q9ULU4: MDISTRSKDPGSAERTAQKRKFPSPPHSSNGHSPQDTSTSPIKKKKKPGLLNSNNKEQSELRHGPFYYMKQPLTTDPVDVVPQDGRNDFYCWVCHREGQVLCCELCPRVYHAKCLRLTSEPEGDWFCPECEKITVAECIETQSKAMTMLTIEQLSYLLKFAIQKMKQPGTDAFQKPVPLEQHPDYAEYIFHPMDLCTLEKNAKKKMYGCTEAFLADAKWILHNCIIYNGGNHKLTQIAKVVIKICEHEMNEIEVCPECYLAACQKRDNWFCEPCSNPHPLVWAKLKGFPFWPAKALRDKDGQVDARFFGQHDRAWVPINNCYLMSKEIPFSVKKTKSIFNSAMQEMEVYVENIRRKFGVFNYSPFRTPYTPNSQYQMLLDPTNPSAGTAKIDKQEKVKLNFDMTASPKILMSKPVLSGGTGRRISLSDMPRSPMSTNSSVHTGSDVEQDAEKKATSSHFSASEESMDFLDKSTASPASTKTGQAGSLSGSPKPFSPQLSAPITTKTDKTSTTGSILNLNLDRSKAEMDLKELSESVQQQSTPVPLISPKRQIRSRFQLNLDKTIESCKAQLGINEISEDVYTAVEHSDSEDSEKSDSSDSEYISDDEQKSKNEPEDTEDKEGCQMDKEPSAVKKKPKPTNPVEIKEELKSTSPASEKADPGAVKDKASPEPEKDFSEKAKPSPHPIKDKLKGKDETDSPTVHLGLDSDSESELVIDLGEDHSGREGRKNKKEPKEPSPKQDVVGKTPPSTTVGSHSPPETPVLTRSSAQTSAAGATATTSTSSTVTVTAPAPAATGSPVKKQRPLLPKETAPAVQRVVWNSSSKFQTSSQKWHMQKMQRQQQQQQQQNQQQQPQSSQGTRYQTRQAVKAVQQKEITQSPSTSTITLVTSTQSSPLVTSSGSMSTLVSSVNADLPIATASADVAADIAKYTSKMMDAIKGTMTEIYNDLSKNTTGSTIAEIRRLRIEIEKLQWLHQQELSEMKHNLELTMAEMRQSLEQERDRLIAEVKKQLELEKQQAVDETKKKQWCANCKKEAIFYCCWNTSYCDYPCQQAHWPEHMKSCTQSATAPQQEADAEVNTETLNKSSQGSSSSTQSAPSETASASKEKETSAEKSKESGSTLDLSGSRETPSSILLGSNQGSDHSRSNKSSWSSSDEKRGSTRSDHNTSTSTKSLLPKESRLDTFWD
UniProt Q969S3: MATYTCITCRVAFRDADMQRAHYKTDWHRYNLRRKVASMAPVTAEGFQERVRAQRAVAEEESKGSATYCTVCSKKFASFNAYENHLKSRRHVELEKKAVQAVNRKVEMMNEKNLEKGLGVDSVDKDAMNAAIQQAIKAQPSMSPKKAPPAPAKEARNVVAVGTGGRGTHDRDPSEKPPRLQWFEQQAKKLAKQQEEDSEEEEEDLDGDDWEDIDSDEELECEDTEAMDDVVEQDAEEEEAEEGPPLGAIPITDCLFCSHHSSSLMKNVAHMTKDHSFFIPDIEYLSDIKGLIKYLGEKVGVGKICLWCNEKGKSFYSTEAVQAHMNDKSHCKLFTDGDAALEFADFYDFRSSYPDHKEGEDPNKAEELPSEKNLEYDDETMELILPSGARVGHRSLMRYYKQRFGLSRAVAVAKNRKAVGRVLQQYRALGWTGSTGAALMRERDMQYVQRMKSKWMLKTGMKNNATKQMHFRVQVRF
UniProt Q9P2E3: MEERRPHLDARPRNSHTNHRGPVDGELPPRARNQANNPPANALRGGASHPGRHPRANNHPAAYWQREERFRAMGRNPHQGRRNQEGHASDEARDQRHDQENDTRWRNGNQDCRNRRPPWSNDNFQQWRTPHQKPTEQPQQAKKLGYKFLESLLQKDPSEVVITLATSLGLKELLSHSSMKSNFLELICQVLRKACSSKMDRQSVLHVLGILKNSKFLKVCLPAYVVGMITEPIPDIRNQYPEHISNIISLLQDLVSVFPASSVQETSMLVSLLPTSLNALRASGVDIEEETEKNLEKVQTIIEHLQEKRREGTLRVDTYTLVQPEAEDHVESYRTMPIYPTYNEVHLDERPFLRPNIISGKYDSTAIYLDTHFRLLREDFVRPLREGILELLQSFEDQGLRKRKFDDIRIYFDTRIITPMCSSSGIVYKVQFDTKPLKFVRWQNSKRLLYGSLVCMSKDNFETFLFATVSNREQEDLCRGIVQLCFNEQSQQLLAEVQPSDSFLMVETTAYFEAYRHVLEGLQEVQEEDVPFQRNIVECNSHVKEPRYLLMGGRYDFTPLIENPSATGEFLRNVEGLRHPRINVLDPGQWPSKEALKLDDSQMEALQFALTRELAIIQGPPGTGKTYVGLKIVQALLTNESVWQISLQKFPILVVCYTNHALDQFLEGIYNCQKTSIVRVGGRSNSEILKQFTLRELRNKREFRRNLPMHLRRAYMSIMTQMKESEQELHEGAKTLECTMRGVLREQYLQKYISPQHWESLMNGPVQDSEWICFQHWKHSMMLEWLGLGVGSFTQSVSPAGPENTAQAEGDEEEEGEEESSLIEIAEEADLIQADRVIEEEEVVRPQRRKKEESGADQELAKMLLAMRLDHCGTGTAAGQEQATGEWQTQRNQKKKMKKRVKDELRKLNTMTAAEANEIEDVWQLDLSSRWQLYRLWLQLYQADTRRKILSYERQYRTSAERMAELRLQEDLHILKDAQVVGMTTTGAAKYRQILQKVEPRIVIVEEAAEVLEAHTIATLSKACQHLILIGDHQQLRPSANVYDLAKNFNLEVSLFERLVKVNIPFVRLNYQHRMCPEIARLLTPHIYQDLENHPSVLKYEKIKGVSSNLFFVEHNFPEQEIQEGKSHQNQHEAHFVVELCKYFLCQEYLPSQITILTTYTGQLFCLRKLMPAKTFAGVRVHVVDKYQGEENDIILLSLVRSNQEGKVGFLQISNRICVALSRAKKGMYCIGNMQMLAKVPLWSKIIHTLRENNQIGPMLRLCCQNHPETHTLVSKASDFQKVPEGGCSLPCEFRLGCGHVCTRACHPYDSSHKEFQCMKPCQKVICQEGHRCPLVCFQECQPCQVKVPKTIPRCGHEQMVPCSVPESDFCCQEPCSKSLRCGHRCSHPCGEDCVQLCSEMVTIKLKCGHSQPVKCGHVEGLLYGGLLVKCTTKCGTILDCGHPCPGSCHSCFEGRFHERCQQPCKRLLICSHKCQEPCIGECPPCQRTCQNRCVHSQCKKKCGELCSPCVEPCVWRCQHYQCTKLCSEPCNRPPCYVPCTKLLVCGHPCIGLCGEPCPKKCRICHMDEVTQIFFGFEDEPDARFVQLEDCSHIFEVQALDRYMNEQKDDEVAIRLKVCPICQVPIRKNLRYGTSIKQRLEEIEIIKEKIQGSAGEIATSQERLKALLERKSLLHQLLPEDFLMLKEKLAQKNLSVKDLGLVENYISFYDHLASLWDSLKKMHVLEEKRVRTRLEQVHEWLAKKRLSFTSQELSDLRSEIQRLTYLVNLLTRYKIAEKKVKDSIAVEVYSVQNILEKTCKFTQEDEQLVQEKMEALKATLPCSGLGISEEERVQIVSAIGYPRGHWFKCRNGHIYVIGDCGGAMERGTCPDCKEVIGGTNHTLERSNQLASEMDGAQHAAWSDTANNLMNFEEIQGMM

What follows are targets tested with O=C1NC(=O)C(c2cnc3ccccn23)=C1c1cn2c3c(cc(F)cc13)CN(C(=O)N1CCCCC1)CC2 (assay: log2 fold change, soluble protein after heating vs DMSO (PISA); higher = thermal stabilisation; K562 lysate, 10 uM; active = over 0.2 and 3.5 SD of the protein, either way, in both replicates (recomputed)).
Outline: (§1)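 Soluble protein was defined as the supernatant remaining after 21,000xg for 90 min, following pooling of heated aliquots and adjustment to 0.5% NP-40 at 4°C. Before that, crude K562 extract at 1 mg/mL protein in PBS pH 7.4 with 1 mM MgCl2 was treated with 10 μM compound for 30 min and heated for 3 min across 48°C-58°C. Quantification used TMTpro 16plex LC-MS/MS with channel sums equalised, and values are log-two fold changes in thermal stability relative to solvent controls from duplicates.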

log2 fold change, inactive:
ZNF148 (UniProt Q9UQR1) -0.068
ZW10 (UniProt O43264) 0
ZNF845 (UniProt Q96IR2) -0.113
ZMYM1 (UniProt Q5SVZ6) -0.004
ZNF787 (UniProt Q6DD87) 0.092
ZNF639 (UniProt Q9UID6) 0.014
ZNF143 (UniProt P52747) -0.011
ZNHIT3 (UniProt Q15649) 0.108
ZNF76 (UniProt P36508) -0.005
ZNF239 (UniProt Q16600) 0.019
ZNF629 (UniProt Q9UEG4) 0.028
ZNF92 (UniProt Q03936) 0.026
ZNF852 (UniProt Q6ZMS4) 0.233
ZNF280B (UniProt Q86YH2) -0.095
ZKSCAN4 (UniProt Q969J2) -0.067
ZNF830 (UniProt Q96NB3) 0.027
ZMYND8 isoform 19 (UniProt Q9ULU4) 0.006
ZNF512 (UniProt Q96ME7) -0.039
ZNF598 isoform 3 (UniProt Q86UK7) 0.024
ZNF622 (UniProt Q969S3) 0.017
ZNFX1 (UniProt Q9P2E3) 0.075
ZMIZ1 (UniProt Q9ULJ6) -0.001
ZNRD2 (UniProt G3V1B8) 0.135
ZNF593 (UniProt O00488) 0.044
ZNF8 (UniProt P17098) -0.087
ZNF638 (UniProt Q14966) -0.028

These targets were tested with c1cn2cc(-c3ccc4cn[nH]c4c3)nc(Nc3ccc(N4CCOCC4)cc3)c2n1 [entospletinib] in the same assay as above.
Outline: as §1

log2 fold change, inactive:
ZNF148 (UniProt Q9UQR1) -0.084
ZW10 (UniProt O43264) 0.016
ZMYM1 (UniProt Q5SVZ6) 0.021
ZNF787 (UniProt Q6DD87) 0.054
ZNF143 (UniProt P52747) 0.017
ZNHIT3 (UniProt Q15649) -0.141
ZNF239 (UniProt Q16600) -0.056
ZNF629 (UniProt Q9UEG4) -0.038
ZNF830 (UniProt Q96NB3) -0.004
ZMYND8 isoform 19 (UniProt Q9ULU4) -0.02
ZNF512 (UniProt Q96ME7) 0.032
ZNF598 isoform 3 (UniProt Q86UK7) -0.017
ZNF622 (UniProt Q969S3) -0.03
ZNFX1 (UniProt Q9P2E3) 0.015
ZMIZ1 (UniProt Q9ULJ6) -0.022
ZNRD2 (UniProt G3V1B8) -0.019
ZNF593 (UniProt O00488) 0.027
ZNF638 (UniProt Q14966) -0.045
